From PubChem BioAssay AID1487 (National Center for Advancing Translational Sciences (NCATS), 2009)
This is one part of the list. Further columns of the screen follow, without active or inactive calls. Compounds called inactive in the main read-out are mostly missing here. Potencies come from curve fits of mixed quality, noted in brackets.

Assay: qHTS Assay for Modulators of Lamin A Splicing
Details: HeLa LMNA splicing GFP/RFP minigene ratio, 48 h
Outline: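 S3 HeLa cells stably expressing lamin A-EGFP splicing minigene plus DsRed2, 600 cells/well, 48 h compound exposure at 37C. Laser-scanning cytometry; analysed as GFP (500-530 nm)/RFP (575-640 nm) total intensity ratio; 0.5% DMSO vehicle.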

[1] = measured here: GFP splicing reporter channel
[2] = measured here: RFP viability control channel

Structure (SMILES)	AC50 [1]	AC50 [2]
CCOCC(=O)Nc1cc(Cl)c(OC)cc1OC	6.31 µM [rising, partial curve, poor fit]	
COc1ccc(NC(=O)CNC(=O)c2c(C)nn(C)c2Cl)cc1	3.16 µM [rising, single point]	
Cc1ccc(C(=O)Nc2ccccc2C(=O)N2CCOCC2)cc1[N+](=O)[O-]		4.47 µM [rising, single point]
Cc1nn(-c2ccc(N3CCCC3)nn2)c(C)c1CCC(=O)Nc1ccc(F)c(Cl)c1	0.891 µM [falling, partial curve, poor fit]	0.794 µM [falling, full curve]
CCCCC/C(C=O)=C/c1ccccc1	0.00447 µM [falling, full curve, poor fit]	0.355 µM [falling, full curve, poor fit]
COc1cccc(Nc2ncc3nc(-c4ccc(Cl)cc4)c(=O)n(C[C@H]4CCCO4)c3n2)c1	3.16 µM [falling, full curve]	
Cc1ccc2oc(=O)c3cc(C(=O)Nc4cc(-c5cccc(F)c5)no4)sc3c2c1		3.98 µM [rising, single point]
Cc1nn(Cc2ccc(Cl)cc2)c(C)c1NC(=O)CSc1n[nH]c(C)c1[N+](=O)[O-]		35.5 µM [rising, single point]
N#C/C(=N\Nc1cccc2ccccc12)c1nnc2n1CCCCC2		0.0891 µM [rising, full curve, poor fit]
COc1cc(Cl)ccc1NC(=O)COc1ccccc1C(=O)N1CCN(c2ccc(O)cc2)CC1		11.2 µM [rising, partial curve]
CCOc1cc(/C=N/NC(=O)Cn2nc([N+](=O)[O-])cc2C)ccc1OCc1ccc(F)cc1		0.0355 µM [falling, single point]
Cc1cc(C)c2nc(N(Cc3cccnc3)C(=O)c3cccs3)sc2c1	0.794 µM [falling, full curve, poor fit]	
CN(C)Cc1cc(C(C)(C)C)c(O)c(C(C)(C)C)c1		12.6 µM [rising, single point]
COc1cccc(C2=NOC(C(=O)Nc3cccc(C(C)=O)c3)C2)c1OC (configuration not stated)	11.2 µM [rising, single point]	14.1 µM [rising, single point]
COc1ccc2[nH]cc(CCNc3ccnc(-c4ccc(N(C)C)cc4)n3)c2c1	0.631 µM [falling, full curve]	0.631 µM [falling, full curve]
S=C(NCc1ccncc1)Nc1ccc(Cl)cc1Cl		35.5 µM [rising, single point]
CCn1cc(S(=O)(=O)c2ccccc2)c(=O)c2cc(F)c(N3CCN(c4ccccc4)CC3)cc21	0.282 µM [falling, single point]	
CCOc1ccc(OCc2ccc(C(=O)NCc3ccncc3)o2)cc1		11.2 µM [rising, partial curve]

Structure (SMILES)	AC50 [1]	AC50 [2]
C#C[C@]1(OC(C)=O)CC[C@H]2[C@@H]3CCC4=C[C@@H](OC(C)=O)CC[C@@H]4[C@H]3CC[C@@]21C	35.5 µM [rising, single point]	
Cc1cc(C)n2nc(SCC(=O)N(CC(C)C)c3c(N)n(CC(C)C)c(=O)[nH]c3=O)nc2n1		35.5 µM [rising, single point]
Cc1c(Cl)cccc1NCC(=O)Nc1ccc(Cl)cc1F	22.4 µM [rising, single point]	14.1 µM [rising, partial curve]
COc1ccc(OCC(=O)NCc2ccc3c(c2)CCN3C(=O)c2ccc(F)cc2)cc1	5.62 µM [rising, single point]	
CCc1ccc(-c2nn(CC(=O)NCc3ccccc3)c3c2cnc2ccc(F)cc23)cc1		39.8 µM [falling, partial curve, poor fit]
Cc1cc(C)c(S(=O)(=O)Nc2ccc(-c3ccc(N4CCCCCC4)nn3)cc2)c(C)c1	0.126 µM [falling, partial curve, poor fit]	
COc1cc(C(=O)Nc2ccc(S(=O)(=O)NC(C)C)cc2)cc(OC)c1OC		35.5 µM [rising, single point]
Cc1cccc(C(=O)NC(=S)NNC(=O)c2ccccc2Cl)c1	11.2 µM [rising, partial curve]	22.4 µM [rising, single point]
CN(CC(=O)NCc1ccccc1)S(=O)(=O)c1ccc2[nH]c3c(c2c1)CCCC3	35.5 µM [falling, partial curve]	11.2 µM [falling, partial curve]
Cc1cc(NC(=O)CSc2nnnn2-c2ccccc2)no1	25.1 µM [falling, single point]	
COC(=O)c1ccc(OCC2c3cc(OC)c(OC)cc3CCN2C(=O)Cc2ccccc2)cc1 (configuration not stated)	2.82 µM [falling, partial curve, poor fit]	
CN1CCc2nc3sc(C(=O)C45CC6CC(CC(C6)C4)C5)c(N)c3cc2C1	35.5 µM [falling, single point]	35.5 µM [falling, single point]
CCC(=O)N1c2ccccc2[C@@H](N(C(C)=O)c2ccccc2)C[C@H]1C		31.6 µM [rising, single point]
CCN(Cc1ccccc1)S(=O)(=O)c1cc(C(=O)Nc2cc(Cl)cc(Cl)c2)ccc1F		35.5 µM [rising, single point]
Cc1ccc(C2=NC3(CCCC3)N=C2SCC(=O)Nc2ccc3c(c2)OCCO3)cc1		11.2 µM [rising, partial curve]
COc1ccc(CC(=O)NCc2ccc3c(c2)CCN3C(=O)c2ccc(Cl)cc2)cc1	12.6 µM [rising, partial curve, poor fit]	31.6 µM [rising, single point]
Fc1ccc(OCCCCCCN2CCCC2)cc1	3.98 µM [falling, single point]	3.16 µM [falling, single point]
N#Cc1sc2nc3c(cc2c1N)CCCC3	7.08 µM [falling, full curve, poor fit]	4.47 µM [falling, full curve, poor fit]

Some of these compounds in order of count of non-hydrogen atoms, rising.
Structure (SMILES)	AC50 [1]	AC50 [2]
N#Cc1sc2nc3c(cc2c1N)CCCC3	7.08 µM [falling, full curve, poor fit]	4.47 µM [falling, full curve, poor fit]
Fc1ccc(OCCCCCCN2CCCC2)cc1	3.98 µM [falling, single point]	3.16 µM [falling, single point]
Cc1c(Cl)cccc1NCC(=O)Nc1ccc(Cl)cc1F	22.4 µM [rising, single point]	14.1 µM [rising, partial curve]
CCC(=O)N1c2ccccc2[C@@H](N(C(C)=O)c2ccccc2)C[C@H]1C		31.6 µM [rising, single point]
COc1cc(C(=O)Nc2ccc(S(=O)(=O)NC(C)C)cc2)cc(OC)c1OC		35.5 µM [rising, single point]
CN(CC(=O)NCc1ccccc1)S(=O)(=O)c1ccc2[nH]c3c(c2c1)CCCC3	35.5 µM [falling, partial curve]	11.2 µM [falling, partial curve]
COc1ccc(CC(=O)NCc2ccc3c(c2)CCN3C(=O)c2ccc(Cl)cc2)cc1	12.6 µM [rising, partial curve, poor fit]	31.6 µM [rising, single point]
Cc1cc(C)n2nc(SCC(=O)N(CC(C)C)c3c(N)n(CC(C)C)c(=O)[nH]c3=O)nc2n1		35.5 µM [rising, single point]
COC(=O)c1ccc(OCC2c3cc(OC)c(OC)cc3CCN2C(=O)Cc2ccccc2)cc1 (configuration not stated)	2.82 µM [falling, partial curve, poor fit]	
